The target of assay [1] is T1, φ6 protein P1 (bacteriophage φ6) (UniProt P11126).
T1 sequence: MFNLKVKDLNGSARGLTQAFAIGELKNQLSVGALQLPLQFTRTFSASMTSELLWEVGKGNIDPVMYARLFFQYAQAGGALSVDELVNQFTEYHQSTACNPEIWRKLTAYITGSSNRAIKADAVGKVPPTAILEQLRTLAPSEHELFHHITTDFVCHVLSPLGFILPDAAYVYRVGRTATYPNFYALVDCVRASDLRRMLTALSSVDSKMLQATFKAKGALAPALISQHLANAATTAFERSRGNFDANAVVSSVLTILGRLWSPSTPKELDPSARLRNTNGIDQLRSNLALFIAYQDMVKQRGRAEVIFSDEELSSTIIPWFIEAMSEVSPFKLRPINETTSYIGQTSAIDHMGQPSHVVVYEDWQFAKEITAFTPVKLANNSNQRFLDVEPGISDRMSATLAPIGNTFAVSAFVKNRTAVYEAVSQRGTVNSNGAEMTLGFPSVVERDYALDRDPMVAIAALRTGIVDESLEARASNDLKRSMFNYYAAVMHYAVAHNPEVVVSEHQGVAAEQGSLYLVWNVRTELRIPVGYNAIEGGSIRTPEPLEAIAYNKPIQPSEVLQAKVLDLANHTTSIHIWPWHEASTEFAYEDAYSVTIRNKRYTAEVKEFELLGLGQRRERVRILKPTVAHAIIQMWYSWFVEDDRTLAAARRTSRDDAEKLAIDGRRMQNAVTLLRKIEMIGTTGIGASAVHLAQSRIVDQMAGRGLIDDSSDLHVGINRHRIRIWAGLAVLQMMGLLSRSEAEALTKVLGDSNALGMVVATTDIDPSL
In words: asymmetrical flow field-flow fractionation (AF4) with SDS-PAGE of fractions; NC (NC2 input or AF4-purified NC) treated with 25 mM EGTA, 1 mM ATP, RT, 30 min; AF4 in 10 mM potassium phosphate pH 7.2, 1 mM MgCl2, 150 mM NaCl, 20 mM EGTA; 22 °C.

Assay [2] addresses T1, φ6 protein P1 (bacteriophage φ6). Nature of the assay: asymmetrical flow field-flow fractionation (AF4) with SDS-PAGE of fractions; Triton X-114-extracted φ6 virions (NC1 input, NC2 input); 10 mM potassium phosphate pH 7.2, 1 mM MgCl2, 0.1 mM CaCl2, 150 mM NaCl; 22 °C; proteins of the late-eluting NC peak seen by Coomassie-stained SDS-PAGE.

These are yes or no findings as the source states them, for the method shown. Binding calls can cover weak binding; strength is not graded here.

Take φ6 protein P7 (bacteriophage φ6): the binding entry in assay [1] and in assay [2] was “binds” in each case.
